Earlier results in patent publication US12172964B2, “Tricyclic octacationic cyclophane and its use in complexation with perlene diimide dyes” (Northwestern University, priority 2020, dated 2024).
Some results were stated once for a whole list of compounds, not compound by compound. At least one structure is not confirmed: it was looked up by name or label, or the drawing left a doubt.

Settings: water, PDI dyes as guests; cited from earlier work

SMILES | affinity constants
c1cc2ccc1C[n+]1ccc(cc1)-c1ccc(cc1)-c1cc[n+](cc1)Cc1ccc(cc1)C[n+]1ccc(cc1)-c1ccc(cc1)-c1cc[n+](cc1)C2 [ExBox.4Cl] | ≤ 10^5 M^−1
O=C1N2CN3C(=O)N4CN5C(=O)N6CN7C(=O)N8CN9C(=O)N%10CN%11C(=O)N%12CN%13C(=O)N%14CN%15C(=O)N%16CN1C1C2N2CN%17C(=O)N(CN%18C(=O)N(CN%19C(=O)N(CN%20C(=O)N(CN%21C(=O)N(CN%22C(=O)N(CN%23C(=O)N(CN1C2=O)C%16C%15%23)C%14C%13%22)C%12C%11%21)C%10C9%20)C8C7%19)C6C5%18)C4C3%17 (centres unmarked) [cucurbit[8]uril] | ≤ 10^5 M^−1
